Reference: PubChem BioAssay AID1259308 (NCATS, 2017)
In all, the deposit lists about 59,000 reagents; below is a random part of them. About 1,510 of them (2.6%) count as active. 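Calls use total luciferase alone and ignore viability, so some active siRNAs may act by altering cell number.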

- Test: 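Candidate targets for better recombinant protein yield in mammalian cells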 (primary screen)
- System: human HEK293 embryonic kidney cells stably expressing firefly luciferase (HEK-CMV-Luc2-Hygro)
- Reagent: single siRNA against human genes, 0.8 pmol siRNA per well
- Timing: 72 h
- Measured: 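Reporter luminescence and viable-cell signal on separate replicate plates, given as percent of non-targeting control and median/MAD z-scores, plus per-cell luciferase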
- Reading the numbers: total luciferase, z-score and total luciferase, % of control: higher = more reporter protein produced; luciferase per cell, z-score: higher = more reporter output per viable cell; viable cells, % of control: higher = more viable cells
- Hit rule: 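An siRNA counts as active if its total luciferase robust z-score exceeds 3; genes with two or more such siRNAs out of three were retested with fresh siRNAs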
- Meaning of the calls: active = raised luciferase; inactive = no rise

The opening 3 entries, ahead of the listing:
| target | PubChem SID | total luciferase, z-score | total luciferase, % of control | luciferase per cell, z-score | viable cells, % of control | activity call |
| --- | --- | --- | --- | --- | --- | --- |
| MRPL37 | SID160740419 | 2.38 | 129 | 2.49 | 74.9 | inactive |
| MRPL37 | SID160740420 | -0.532 | 71.3 | -1.01 | 104 | inactive |
| MRPL37 | SID160740421 | 0.515 | 92.1 | 0.458 | 91.3 | inactive |

The list itself, from the start:
| target | PubChem SID | total luciferase, z-score | total luciferase, % of control | luciferase per cell, z-score | viable cells, % of control | activity call |
| --- | --- | --- | --- | --- | --- | --- |
| MRPL37 | SID160740419 | 2.38 | 129 | 2.49 | 74.9 | inactive |
| MRPL37 | SID160740420 | -0.532 | 71.3 | -1.01 | 104 | inactive |
| MRPL37 | SID160740421 | 0.515 | 92.1 | 0.458 | 91.3 | inactive |
| NEDD4 | SID160777929 | -1.24 | 57.2 | -1.71 | 100 | inactive |
| NEDD4 | SID160777930 | -0.73 | 67.4 | -0.892 | 95.2 | inactive |
| NEDD4 | SID160777931 | 0.387 | 89.6 | 1.14 | 74.1 | inactive |
| RPL13A | SID160736458 | 2.17 | 125 | 1.74 | 88.4 | inactive |
| RPL13A | SID160736459 | -2.06 | 40.9 | -0.673 | 54.5 | inactive |
| RPL13A | SID160736460 | -1.2 | 58 | 0.0383 | 64.1 | inactive |
| ECI1 | SID160723732 | -0.747 | 67 | -1.37 | 107 | inactive |
| ECI1 | SID160752899 | -0.891 | 64.2 | -0.889 | 90.6 | inactive |
| ECI1 | SID160752910 | -0.14 | 79.1 | -0.299 | 95.6 | inactive |
| DMRTC1 | SID160747330 | 4.47 | 171 | 3.03 | 85.8 | active |
| DMRTC1 | SID160747331 | 1.32 | 108 | 1.65 | 78.1 | inactive |
| DMRTC1 | SID160747333 | -1.39 | 54.3 | -1.21 | 83.5 | inactive |
| PIK3IP1 | SID160754873 | 1.12 | 104 | 1.45 | 79.5 | inactive |
| PIK3IP1 | SID160754874 | 0.97 | 101 | 0.931 | 88.5 | inactive |
| PIK3IP1 | SID160754875 | 0.486 | 91.6 | 0.716 | 84.7 | inactive |
| JAK2 | SID160776075 | 3.57 | 153 | 1.77 | 107 | active |
| JAK2 | SID160776077 | -1.36 | 54.9 | -1.19 | 83.8 | inactive |
| JAK2 | SID160776078 | -0.447 | 73 | -0.599 | 95.5 | inactive |
| CALCOCO2 | SID160727521 | 0.169 | 85.2 | 1.23 | 68.8 | inactive |
| CALCOCO2 | SID160727527 | 1.58 | 113 | 2.73 | 61.8 | inactive |
| CALCOCO2 | SID160727537 | 1.86 | 119 | 0.646 | 112 | inactive |
| ANKLE2 | SID160735548 | -0.788 | 66.2 | -1.21 | 102 | inactive |
| ANKLE2 | SID160735549 | 0.739 | 96.6 | 0.494 | 94.8 | inactive |
| ANKLE2 | SID160735550 | 0.301 | 87.9 | -0.359 | 108 | inactive |
| XPNPEP1 | SID160718900 | 0.331 | 88.5 | 0.582 | 84.8 | inactive |
| XPNPEP1 | SID160718901 | -0.54 | 71.2 | -0.00979 | 79.7 | inactive |
| XPNPEP1 | SID160718902 | 1.74 | 117 | 1.54 | 86.8 | inactive |
| MUC4 | SID160777569 | -1.95 | 43.1 | -1.63 | 73.9 | inactive |
| MUC4 | SID160777570 | 0.606 | 93.9 | -0.342 | 115 | inactive |
| MUC4 | SID160777571 | -2.15 | 39.2 | -2.41 | 82.7 | inactive |
| TRIM69 | SID160757843 | -0.23 | 77.3 | -0.368 | 95.2 | inactive |
| TRIM69 | SID160757844 | -0.835 | 65.3 | -0.227 | 77.4 | inactive |
| TRIM69 | SID160757845 | -0.762 | 66.7 | -0.469 | 84.4 | inactive |
| MYH13 | SID160720703 | -1.49 | 52.3 | -1.83 | 94.4 | inactive |
| MYH13 | SID160720704 | -0.146 | 79 | -0.0224 | 88.8 | inactive |
| MYH13 | SID160720705 | 0.61 | 94 | 0.0205 | 105 | inactive |
| MFAP5 | SID160719604 | 0.757 | 96.9 | 0.814 | 87.4 | inactive |
| MFAP5 | SID160719605 | 0.628 | 94.4 | 0.864 | 84 | inactive |
| MFAP5 | SID160734992 | 1.33 | 108 | 1.81 | 75.1 | inactive |
| SLC22A13 | SID160722100 | 1.35 | 109 | 1.78 | 76 | inactive |
| SLC22A13 | SID160722101 | -0.499 | 72 | 0.0831 | 78.7 | inactive |
| SLC22A13 | SID160722102 | -1 | 62 | -0.726 | 83.9 | inactive |
| TAF10 | SID160717671 | 0.626 | 94.3 | 0.816 | 85 | inactive |
| TAF10 | SID160717672 | 0.934 | 100 | 1.23 | 81.3 | inactive |
| TAF10 | SID160717673 | 0.198 | 85.8 | 0.929 | 75.1 | inactive |
| SYT14P1 | SID160731207 | 5.55 | 192 | 3.61 | 83 | active |
| SYT14P1 | SID160767161 | -0.221 | 77.5 | -0.607 | 102 | inactive |
| SYT14P1 | SID160767162 | -0.983 | 62.3 | -1.03 | 91.4 | inactive |
| PTPRN | SID160715417 | -0.882 | 64.3 | -0.545 | 83 | inactive |
| PTPRN | SID160715418 | -1.11 | 59.8 | -1.52 | 99.6 | inactive |
| PTPRN | SID160715419 | -0.756 | 66.8 | -0.146 | 77.6 | inactive |
| ZNF234 | SID160729203 | 0.412 | 90.1 | -0.056 | 102 | inactive |
| ZNF234 | SID160729204 | 0.311 | 88.1 | -0.168 | 103 | inactive |
| ZNF234 | SID160729205 | -0.401 | 73.9 | -0.386 | 91.4 | inactive |
| EBAG9 | SID160721629 | -0.123 | 79.4 | -0.429 | 99.4 | inactive |
| EBAG9 | SID160721630 | -0.323 | 75.5 | -0.162 | 88 | inactive |
| EBAG9 | SID160735188 | 4.71 | 176 | 3.49 | 78.2 | active |
| SCAF11 | SID160721636 | 0.378 | 89.4 | -0.316 | 109 | inactive |
| SCAF11 | SID160721637 | 0.22 | 86.3 | 1.05 | 73 | inactive |
| SCAF11 | SID160721638 | -1.31 | 55.9 | -0.571 | 72.6 | inactive |
| DYNC1LI1 | SID160740170 | -0.244 | 77 | -0.0805 | 87.9 | inactive |
| DYNC1LI1 | SID160740171 | -0.231 | 77.3 | -0.532 | 99.4 | inactive |
| DYNC1LI1 | SID160740172 | 0.352 | 88.9 | -0.253 | 106 | inactive |
| PSTPIP1 | SID160721351 | 3.88 | 159 | 2.85 | 83.9 | active |
| PSTPIP1 | SID160721352 | -0.414 | 73.7 | -1.29 | 116 | inactive |
| PSTPIP1 | SID160721353 | -0.0722 | 80.5 | 0.471 | 79.4 | inactive |
| IDH3A | SID160775536 | 0.0158 | 82.2 | -0.219 | 97.3 | inactive |
| IDH3A | SID160775537 | 0.563 | 93.1 | 0.0685 | 102 | inactive |
| IDH3A | SID160775538 | -0.855 | 64.9 | -0.592 | 84.7 | inactive |
| PIP5K1C | SID160736189 | -0.331 | 75.3 | -0.205 | 88.8 | inactive |
| PIP5K1C | SID160736190 | -0.905 | 63.9 | -0.9 | 90.5 | inactive |
| PIP5K1C | SID160736191 | -0.0317 | 81.3 | 0.7 | 75.5 | inactive |
